Data as given in article PMC8345930.
These are yes or no findings as the source states them, for the method shown. Some results given as binding are weak or reduced against the parent protein; the word gives no strength.

Amino acid sequences for entries named in this document (tags omitted).
UniProt Q9UBY9: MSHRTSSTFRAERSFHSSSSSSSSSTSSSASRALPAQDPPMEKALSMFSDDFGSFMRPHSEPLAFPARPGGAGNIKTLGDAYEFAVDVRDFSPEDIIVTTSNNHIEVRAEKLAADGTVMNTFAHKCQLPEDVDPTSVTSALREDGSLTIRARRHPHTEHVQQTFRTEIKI

Assays:
[1] = target: T1, Cys-mutant of HspB8 (C10S/C99S/C195S/N138C) (human) (UniProt Q9UJY1); assay: SEC; SDS-PAGE of the 79–80 kDa SEC peak of the oxidised HspB7 and HspB8 Cys-mutant mixture; data not shown; both purified
T1 sequence: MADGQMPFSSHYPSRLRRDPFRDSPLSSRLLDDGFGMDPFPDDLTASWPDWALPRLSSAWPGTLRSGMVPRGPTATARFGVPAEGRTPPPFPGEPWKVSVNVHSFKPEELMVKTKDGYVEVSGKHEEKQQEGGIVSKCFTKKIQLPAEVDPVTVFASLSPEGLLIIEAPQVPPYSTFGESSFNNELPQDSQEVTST

[2] = target: T1, Cys-mutant of HspB8 (C10S/C99S/C195S/N138C) (human); assay: SEC; oxidised (disulfide cross-linked) proteins alone or in equimolar mixture on Superdex 200 Increase GL 10/300; profile of the mixture compared with the arithmetic sum of the isolated proteins; both purified
[3] = target: T1, Cys-mutant of HspB8 (C10S/C99S/C195S/N138C) (human); assay: cross-linking; disulfide cross-linking: reduced proteins alone or in equimolar mixture (15 µM each), 1 h at 42 °C, dialysed overnight at 37 °C against 50 mM Tris-HCl pH 8.0, 50 mM KCl, 0.1 mM PMSF; read by SDS-PAGE (HspB8) or urea gel electrophoresis (HspB6); both purified

Measured: binding

recombinant human small heat shock protein HspB7 (cvHsp), wild type, untagged (from UniProt Q9UBY9 1-170)
binds: all assays above
